Laboratory results: patent publication US20040247639A1, “Novel methods and compositions for the treatment or prevention of dysmenorrhoea and menstrual side effects: the use of phospholipase inhibitors” (priority 2000, published 2004)
The name of at least one read-out is uncertain.

System: rat uterus
Assay: Oxytocin-challenged uterine work in uteri of ovarectomised, sex hormone-treated rats
Conditions: 1 nM-1 μM
Source text: To examine the potential benefit of PLA2 inhibitors in treating dysmenorrhoea in women, an in vitro model was developed which measured the force and frequency of contractions in a rat uterus. When removed from the rat and placed in an organ bath, the uterus contracts rhythmically. The force of contraction varies with the profile of sex hormones produced by the animal at the different stages of the sexual (oestrus) cycle. Levels of oestrogen and progesterone fluctuate throughout the sexual cycle. To ensure a reproducible model, rats were ovarectomised and oestrogen, progesterone, a combination of oestrogen and progesterone and an inert control substance were given to mimic different stages of the sexual cycle.
In a separate series of experiments, rats were ovarectomised then treated with sex hormones to ensure animals are at the same stage of the oestrus cycle. Uteri were removed from the rats 4 days after hormone treatment, allowed to equilibrate in the organ baths for 30 minutes, then the intensity of uterine contractions and frequency of the spontaneous contractions was measured. In the oestrogen-primed uteri, spontaneous uterine work was […], in progesterone-primed rats, 10±0.9 mNs^−1, in oestrogen plus progesterone-primed uteri, 9±1.5 mNs^−1 and in control uteri 7.9±0.6 mNs^−1. […]

With O=C(O)CC[C@@H](CSc1ccc(Cc2ccccc2)cc1)NC(=O)CCCCCCc1ccccc1 [Compound 5, (S)-5-(4-Benzyl-phenylsulfanyl)-4-(7-phenyl-heptanoylamino)-pentanoic acid] the “shift of oxytocin concentration-response curve (oxytocin EC50 values)” value (oil vehicle (control) rats, n=4) was “did not cause a shift” and the “shift of oxytocin concentration-response curve (oxytocin EC50 values)” value (progesterone treated uteri, n=5) was “no detectable change”.
